{
  "source": "patent US12454509B2",
  "about": "“Local anesthetics with selective-sensory nerve blockade” (Children's Medical Center Corporation, priority 2019, dated 2025)",
  "system": "sciatic nerve",
  "assay": "Sciatic nerve block in rats: duration of thermal nociceptive (sensory) block, modified hotplate test",
  "format": "in vivo",
  "conditions": "rat sciatic nerve block, dose conc 10 mM",
  "description": "Sciatic Nerve Block and Neurobehavioral Testing. Animals were cared for in compliance with protocols approved by the Children's Hospital Animal Care and Use Committee, and the Massachusetts Institute of Technology Committee on Animal Care, which conformed to guidelines of the International Association for the Study of Pain. Adult male Sprague-Dawley rats (Charles River Laboratories) weighing 320-450 g were housed in groups, in a 6 AM to 6 PM light-dark cycle. Under brief isoflurane-oxygen anesthesia, a 23G needle was introduced postero-medial to the greater trochanter, until bone was contacted, and 0.3 mL of test solution was injected over the sciatic nerve. Thermal nociception was assessed by a modified hotplate test, and motor function via a weight-bearing test. […] Motor strength was assessed with a weight-bearing test. In brief, the animal was held over a digital balance such that it could bear weight with 1 hind paw at a time. The maximum weight that it could bear was recorded. The duration of motor blockade was defined as the time for weight bearing to return halfway to normal from maximal block. The halfway point for each rat was defined as […].",
  "note": "The name of at least one read-out is uncertain.",
  "data": [
    {"smiles": "CCCC(=O)OC[N+]1(CCC)CCCC[C@H]1C(=O)Nc1c(C)cccc1C.[Cl-]", "note": "(stereo in doubt) [Compound 11S, 1-((Butyryloxy)methyl)-2-((2,6-dimethylphenyl)carbamoyl)-1-propylpiperidin-1-ium chloride]", "values": [
      {"measurement": "Sensory:Motor Block Ratio", "value": 1.5}
    ]}
  ]
}
